Reference: PubChem BioAssay AID1053208 (Peter MacCallum Cancer Centre, 2014)
Assay: 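Synthetic lethal interactions between gene loss and doxorubicin in osteosarcoma cells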 (primary screen). Cell system: mouse osteosarcoma cells, early-passage culture from an engineered mouse model of fibroblastic bone tumour. Knock-down reagent: siRNA pool against mouse genes, 40 nM. Time to read-out: about 120 h (48 h before drug, then 72 h with drug). Conditions: doxorubicin 100 nM for 72 h, roughly 30-40% inhibitory dose. Measurement: 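Viability read as ATP luminescence after 72 h of 100 nM doxorubicin or none, duplicate wells averaged, scaled to non-targeting siRNA, then expressed as robust z-scores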. Scale: viability z-score with doxorubicin: higher = more viable cells under doxorubicin; viability z-score without drug: higher = more viable cells with knock-down alone. Call rule: 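a pool counts as active when its viability z-score with doxorubicin is -2 or below and its z-score without drug lies between -2 and 2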.
This is one part, drawn at random, of about 17,000 reagents tested. 788 of them (4.7%) count as active. 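Calls rest on z-score classes alone; an extra cut-off of viability at most 70% of control was not applied to them.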 Not all columns of the deposit are shown.

gene knocked down	PubChem SID	combined z-score class	viability z-score with doxorubicin	viability z-score without drug	outcome
Pla2g5 (phospholipase A2, group V)	SID152335898	no change with or without drug	1.12	0.84	inactive
Mindy3 (MINDY lysine 48 deubiquitinase 3)	SID152307202	no change with or without drug	-1.8	0.51	inactive
Vmn1r179 (vomeronasal 1 receptor 179)	SID152302900	no change with or without drug	-1.69	-1.18	inactive
Serpinb6b (serine (or cysteine) peptidase inhibitor, clade B, member 6b)	SID152317017	no change with or without drug	-0.56	0.17	inactive
Nmur2 (neuromedin U receptor 2)	SID152310867	no change with or without drug	1.01	0	inactive
Fxyd2 (FXYD domain-containing ion transport regulator 2)	SID152285302	low cell count with doxorubicin only	-2.02	-1.18	active
Plcb3 (phospholipase C, beta 3)	SID152259165	no change with or without drug	0.9	1.18	inactive
Apex1 (apurinic/apyrimidinic endonuclease 1)	SID152302369	no change with or without drug	-1.35	0.84	inactive
Eef1a2 (eukaryotic translation elongation factor 1 alpha 2)	SID152301665	no change with or without drug	-0.22	1.52	inactive
Rassf8	SID152259198	no change with or without drug	0	0.84	inactive
Clec2d (C-type lectin domain family 2, member d)	SID152300379	no change with or without drug	0.9	-0.17	inactive
Rab11fip4 (RAB11 family interacting protein 4 (class II))	SID152290341	no change with or without drug	-0.9	-0.84	inactive
Popdc1 (popeye domain cAMP effector 1)	SID152296310	no change with or without drug	-0.22	1.35	inactive
Clec4n (C-type lectin domain family 4, member n)	SID152343056	no change with or without drug	-1.35	-0.34	inactive
Zfp617 (zinc finger protein 617)	SID152333388	no change with or without drug	0.22	0.51	inactive
Tnfaip6 (tumor necrosis factor alpha induced protein 6)	SID152316451	no change with or without drug	-0.67	0.34	inactive
Bcl2l14 (BCL2 like 14)	SID152300012	no change with or without drug	-0.22	-0.51	inactive
Ticam1 (TIR domain containing adaptor molecule 1)	SID152307400	no change with or without drug	0.22	0.17	inactive
Or10ag58 (olfactory receptor family 10 subfamily AG member 58)	SID152295521	no change with or without drug	-0.67	-0.17	inactive
Samd11 (sterile alpha motif domain containing 11)	SID152270573	no change with or without drug	-1.57	-0.51	inactive
Ccn3 (cellular communication network factor 3)	SID152310306	no change with or without drug	1.24	0.17	inactive
Ncoa2 (nuclear receptor coactivator 2)	SID152263117	no change with or without drug	1.35	-0.84	inactive
E2f7 (E2F transcription factor 7)	SID152300408	no change with or without drug	-0.67	-0.17	inactive
Hr (Hr, lysine demethylase and nuclear receptor corepressor)	SID152291782	no change with or without drug	-0.67	-1.18	inactive
Ces1e (carboxylesterase 1E)	SID152290385	no change with or without drug	-1.12	0.17	inactive
Asb15 (ankyrin repeat and SOCS box-containing 15)	SID152334359	no change with or without drug	0.22	-0.51	inactive
Golm1 (golgi membrane protein 1)	SID152331976	no change with or without drug	0.34	1.35	inactive
Cops5 (COP9 signalosome subunit 5)	SID152322703	no change with or without drug	1.46	-0.51	inactive
Ccdc9 (coiled-coil domain containing 9)	SID152266604	no change with or without drug	-1.01	0.17	inactive
Slc35e3	SID152293122	no change with or without drug	0.67	0.34	inactive
Cnbp (cellular nucleic acid binding protein)	SID152262150	no change with or without drug	-0.9	-0.84	inactive
Hbs1l (Hbs1-like (S. cerevisiae))	SID152339721	no change with or without drug	-0.22	1.52	inactive
Tafa3 (TAFA chemokine like family member 3)	SID152340380	no change with or without drug	1.01	-0.67	inactive
Phox2b (paired-like homeobox 2b)	SID152328948	no change with or without drug	0.11	-0.17	inactive
Aplnr (apelin receptor)	SID193126351	no change with or without drug	-0.22	-1.52	inactive
Tmem139 (transmembrane protein 139)	SID152306538	no change with or without drug	0	-1.85	inactive
Or8g20 (olfactory receptor family 8 subfamily G member 20)	SID152338808	no change with or without drug	-0.45	-1.01	inactive
Gzme (granzyme E)	SID152277371	no change with or without drug	0.56	0.84	inactive
Ccna2 (cyclin A2)	SID152310263	no change with or without drug	1.24	0.17	inactive
Tti2 (TELO2 interacting protein 2)	SID152290417	no change with or without drug	0.79	-0.84	inactive
Dusp26 (dual specificity phosphatase 26)	SID152325409	no change with or without drug	0.67	0.17	inactive
Whr1 (winged helix repair factor 1)	SID152262535	no change with or without drug	1.46	0.67	inactive
Tdpoz1 (TD and POZ domain containing 1)	SID152292193	no change with or without drug	-0.45	0.34	inactive
Tcf4 (transcription factor 4)	SID152277497	no change with or without drug	0	0.84	inactive
Slit2 (slit guidance ligand 2)	SID152318159	no change with or without drug	1.35	0.51	inactive
S100a9 (S100 calcium binding protein A9 (calgranulin B))	SID152335852	no change with or without drug	0.22	1.52	inactive
Pcdh20 (protocadherin 20)	SID152306371	no change with or without drug	-0.11	0.67	inactive
Abca4 (ATP-binding cassette, sub-family A member 4)	SID152292773	low cell count with doxorubicin only	-2.59	-0.34	active
Prdx2 (peroxiredoxin 2)	SID152342606	no change with or without drug	0.34	-0.17	inactive
Actn3 (actinin alpha 3)	SID152268347	no change with or without drug	-0.34	0.67	inactive
